At least one compound was matched to its structure with a doubt left.
Key:
platelets = assay: Serotonin release assay with 14C-labeled platelets; assay type: cell-based, human
Protocol: To confirm the results of the novel assay, an independent, orthogonal assessment of activity was performed using a serotonin release assay. Serotonin release assays are described in Hirschman, “The use of platelet serotonin release as a sensitive method for detecting anti-platelet antibodies and a plasma anti-platelet factor in patients with idiopathic thrombocytopenic purpura”, Br. J. Haematol., 24(6):793-802 (1973), and Rauova and Cines, “Heparin-associated thrombocytopenia”, N. Engl. J. Med., 303:788-795 (1980), which are hereby incorporated by reference.
Briefly, platelet rich plasma (PRP) from healthy donors was incubated with 0.5 μL ^14C-5-hydroxytryptamine creatinine sulfate (GE Life Sciences, Piscataway, N.J.) per milliliter of PRP for 20 minutes at 37° C. to produce ^14C-labeled platelets. Serotonin uptake was inhibited by adding […] imipramine (Sigma-Aldrich, St. Louis, Mo.) to the PRP.
The radiolabeled platelets were mixed with KKO (170 μg/mL) or with known platelet-activating HIT plasma in the absence (buffer control) or presence of PF4 antagonist compounds 1, 34, 80, 101, and 96. Assays were performed in the presence of heparin (1.0 U/mL) and in the absence of heparin (background). […] Data are expressed as % maximal release of radioactivity with release by the positive control plasma and 1.0 U/mL heparin defined as 100%.

PF4 = target: T1, PF4 (Homo sapiens, UniProt P02776); assay: DT40 cell (FcγRIIA + NFAT-Luc reporter) activation assay: inhibition by PF4 antagonists; assay type: cell-based
T1 construct: platelet factor 4 which is a 70 amino acid, lysine-rich, 7.8 kDa platelet-specific protein; made in house; host or cells: Drosophila Schneider 2 (S2) cells
T1 sequence (P02776 32-101): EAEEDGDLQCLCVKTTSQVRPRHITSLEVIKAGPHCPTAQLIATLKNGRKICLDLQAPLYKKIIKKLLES
Protocol: DT40 cells (chicken B cells) were cultured in RPMI supplemented with 10% fetal bovine serum, 1% chicken serum (Gibco), 50 μM 13-mercaptoethanol, 2 mM GlutaMAX (Gibco), 100 U/mL penicillin and 100 U/mL streptomycin at 37° C. under 5% CO2. Cells were co-transfected with 5 μg pEF6-FcγRIIA and 20 μg pEF6-NFAT-Luc by electroporation. Positive transformants were selected using blastidicin.
On day following transfection, cells were pelleted by centrifugation and re-suspended at 2×10^6 cells/mL in fresh medium without serum. Cell aliquots (50 μL) were placed into each well of a 96 well plate. To establish basal expression, 50 μL media was added. Further, the cells were also incubated independently with the following: PF4, heparin, RTO antibody, KKO antibody, ULCs alone, ULCs and RTO; ULCs and KKO and IV.3 antibody. Monoclonal antibody IV.3 (an FcγRIIA-blocking antibody) was used in combination with an anti-Fc antibody to activate FcγRIIA bound by IV.3 as a positive control for FcγRIIA signaling. 8 μg/mL of IV.3 was added for 15 minutes at 37° C. under 5% CO2, followed by 50 μL of sheep anti-mouse-IgG secondary antibody at 15 μg/mL to crosslink and activate these receptors. As a positive control for an intact intracellular signaling pathway, phorbol myristate acetate (PMA; 25 ng/mL) with ionomycin (1 μM) was added (not shown).
We then used this assay to measure the inhibitory capacity of the PF4 antagonist compounds described in the concurrently filed related application referenced above. PF4 (10 μg/mL) and various concentrations of potential antagonists were co-incubated for 60 min at 37° C. under 5% CO2 followed by the addition of heparin (0.3 U/mL) for 15 min at 37° C. in 5% CO2. KKO (20 μg/mL) or plasma from patients with serotonin release assay confirmed HIT (1:800 dilution) was then added. […] Luciferase activity was measured on a Berthold MultiLumat LB 9506 Luminometer (10 sec readings) using Promega's Luciferase Assay Reagent following the manufacturer's instructions. […]

CC(=O)C1=C(O)c2cc([N+](=O)[O-])ccc2C1=O [Compound 1]
inhibition of serotonin release from platelets activated by plasma from patients with HIT (platelets; HIT plasma, several antagonist concentrations, FIG. 1F): inhibited
inhibition of platelet activation by KKO (release of 14C-serotonin) (platelets; KKO 170 μg/mL, heparin 1.0 U/mL, antagonists 2.5 mM, FIG. 1E): inhibited
inhibition of DT40 activation by human HIT plasma (PF4; HIT plasma 1:800 dilution, similar potency as activation by KKO, FIG. 1D): inhibited
inhibition of FcγRIIA-dependent cellular activation (in words) (PF4; activation by KKO, dose-response, FIG. 1C): complete inhibition
inhibition of DT40 activation by KKO and patient samples (PF4; antagonist concentration 500 μM, KKO and plasma from three HIT patients, FIG. 1D): completely inhibited
